Assay results: paper doi:10.1101/259259
Results are given in words; binding and its absence hold for the method and conditions named. For some assays here: In cells and extracts the contact can be indirect. Some results given as binding are weak or reduced against the parent protein; the word gives no strength. Blank lines part the entries; values can stand above or below the substance they belong to.

By UniProt entry, the sequences of proteins in these tests, tags left out. Where a name states a change or a piece, a line headed by the entry shows the natural chain unless it says otherwise. Residues count along the entry.
UniProt P07737, residues 2-140: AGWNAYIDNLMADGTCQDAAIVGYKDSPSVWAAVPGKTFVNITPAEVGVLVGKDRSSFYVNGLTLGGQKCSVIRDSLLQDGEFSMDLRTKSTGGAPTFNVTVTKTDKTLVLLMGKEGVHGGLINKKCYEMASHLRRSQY
UniProt Q9Y696, residues 1-251: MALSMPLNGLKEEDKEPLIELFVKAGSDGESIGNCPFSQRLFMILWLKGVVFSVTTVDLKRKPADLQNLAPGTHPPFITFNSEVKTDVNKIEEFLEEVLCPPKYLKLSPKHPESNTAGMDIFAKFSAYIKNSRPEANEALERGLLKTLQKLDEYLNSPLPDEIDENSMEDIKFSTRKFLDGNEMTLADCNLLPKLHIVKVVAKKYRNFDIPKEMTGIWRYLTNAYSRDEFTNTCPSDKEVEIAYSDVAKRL
UniProt Q9QYB1: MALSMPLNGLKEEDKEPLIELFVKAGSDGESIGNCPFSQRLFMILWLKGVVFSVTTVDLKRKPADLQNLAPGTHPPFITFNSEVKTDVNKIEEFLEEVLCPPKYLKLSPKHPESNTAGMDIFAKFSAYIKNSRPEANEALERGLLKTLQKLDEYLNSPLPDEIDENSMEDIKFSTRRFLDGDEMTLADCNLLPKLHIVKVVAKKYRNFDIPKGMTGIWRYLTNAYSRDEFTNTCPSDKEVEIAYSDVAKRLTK

What was measured:
[1] = molecular target: GST-Profilin-1 (human) (UniProt P07737); assay: pull-down
[2] = molecular target: GST-CLIC4 wt (UniProt Q9Y696); assay: pull-down
[3] = molecular target: 3XFLAG-CLIC4 wild type (UniProt Q9QYB1); assay: co-IP
[4] = molecular target: 3XFLAG-CLIC4 C35A (UniProt Q9QYB1); assay: co-IP

binding [1]: binds
Substance: YFP-CLIC4 (wt) (from UniProt Q9Y696 1-251)

binding [2]: binds
Substance: Profilin-1 (from UniProt P07737 2-140)

binding [3]: binds | binding [4]: no binding
Substance: GFP-PFN1 (from UniProt P07737 2-140)

binding [1]: binds
Substance: recombinant CLIC4 wt (from UniProt Q9Y696 1-251)
